Source: paper PMC11079228
Results are given in words; binding and its absence hold for the method and conditions named. In cells and extracts the contact can be indirect. A yes stands for co-enrichment or nearness to the bait. Other partners may have been found.

B1: PARK7 (protein, UniProt O88767 1-189)
chain: MASKRALVILAKGAEEMETVIPVDIMRRAGIKVTVAGLAGKDPVQCSRDVVICPDTSLEEAKTQGPYDVVVLPGGNLGAQNLSESALVKEILKEQENRKGLIAAICAGPTALLAHEVGFGCKVTSHPLAKDKMMNGSHYSYSESRVEKDGLILTSRGPGTSFEFALAIVEALSGKDMANQVKAPLVLKD
B2: KN motif and ankyrin repeat domains 2 (protein, UniProt D3ZD05 1-847)
chain: MAQVLHVPAPFPGTPGQASSAAFPNKEPDPPYSVETPYGYRLDLDFLKYVDDIEKGHTLRRVPVQRRPRLGSLPRGPGSWWTSTESLCSDASGDSRHSAYSYCGRGFYPQYGALETRSGTNPRVERTLLDARRRLEDQAAAPSSGGLGSLTPSAAGSTSSLAGVGLLPPTPRSSGLSTPVAPSAGHLAHVREQMAGALRKLRQLEEQVKLIPVLQVKLSVLQEEKRQLTVQLKSQKFLGHPSGTRSRSELCLDLPEAPDDPAVLETRSVGTWVRERDLGIPDGEAALVAKVAVLETQLKKALQELRAAQTQQVDLQPQAWPPPDTQVRVDTVRVVEGPREVEVAASTAAGAPAQRAQSLEPYGAGLKALATSAENTLVFRSHEVVETMCPLPTASTSNMHTAKKISITERNCTGAARMADPPPSPAEPSPSSPYPAAEPENPAPAAQDTTDRELTRPVASQDSQAAEGAGGASLGVQSALKRKEVPADPDVHQRNLQFVGINGGYESSSEDSSTAENSEHESTENEAPEPPVRVLSTAEGPQLRPLGPAVGKTSQDERQLSQESQRVPEAKVAPGPDPEEEIRMDLSPDLISACLALEKYLENPNALTERELKVAYTTVLQEWLRLACRSDAHPELVRRHLVTFRAMSARLLDYVVNIADSNGNTALHYSVSHANFPVVRQLLDSGVCQVDKLNRAGYSPIMLTALATLKTQDDIDTILQLFRLGNVNAKASQAGQTALMLAVSHGRVDVVKALLACEVDVNMQDEDGSTALMCACEHGHKEITGLLLAVPSCDISLTDRDGSTALMVALDAGQSEIASMLYSRMNIKCSFAPMSDYESPASSSAEE
B3: Kinesin-like protein;Kinesin-like protein KIF1C (rat) (protein, UniProt O35787 1-1097)
chain: MAGASVKVAVRVRPFNARETSQDAKCVVSMQGNTTSIINPKQSRMFLKASFDYSYWSHTSVEDPQFASQQQVYRDIGEEMLLHAFEGYNVCIFAYGQTGAGKSYTMMGRQEPGQQGIVPQLCEDLFSRVNVNQSAQLSYSVEVSYMEIYCERVRDLLNPKSRGSLRVREHPILGPYVQDLSKLAVTSYADIADLMDCGNKARTVAATNMNETSSRSHAVFTIVFTQRSHDQLTGLDSEKVSKISLVNLAGSERADSSGARGMRLKEGANINKSLTTLGKVISALADLQSKKRKSDFIPYRDSVLTWLLKENLGGNSRTAMIAALSPADINYEETLSTLRYADRTKQIRCNAVINEDPNARLIRELQEEVARLRELLMAQGLSASALGGLKVEEGSPGGVLPAASSPPAPASPSSPPPHNGELEPSFSPSAEPQIGPEEAMERLQETEKIIAELNETWEEKLRKTEALRMEREALLAEMGSPGGWRTVGVFSPKKTPHLVNLNEDPLMSECLLYHIKDGVTRVGQVDVDIKLTGQFIREQHCLFRSIPQPDGEVMVTLEPCEGAETYVNGKLVTEPLVLKSGNRIVMGKNHVFRFNHPEQARLERERGVPPPPGPPSEPVDWNFAQKDWLEQQGIDIKLEMEKRLQDLENQYRKEKEEADLLLEQQRLYADSDSGEDSDKRSCEESWRLISSLRDELPPNTVQTIVKRCGLPSSGKRRAPRRVYQIPQRRRLQGKDPRWATMADLKMQAVKEICYEVALADFRHGRAEIEALAALKMRELCRTYGKPEGPGDAWRAVARDVWDTVGEEEGCGGGGGGGEEGARGAEVEDLRAHIDKLTGILQEVKLQNSSKDRELQALRDRMLRMERVIPLTQDLEDDNEESGLVTWAPPEGSEAVEEAVSNDHSPAVRPSSPPQSSWERVSRLMEEDPAFRRGRLRWLKQEQLRLQGLQGSGGRGGGLRRPPARFVPPHDCKLRFPFKSNPQHRESWPGMGSGEAPGPQPPEEVTAPPPPPNRRPPSPRRPHRPRRNSLDGGSRSRGGGSTQPEPQHLRPQKHNSYPQQPQPYPAQRPGPRYPPYTTPPRMRRQRSAPDLKESGAAV

What follows are binders tested against Huntingtin-interacting protein 1 (rat) (rat (endogenous in rat FLS)) (assay: affinity purification with mass spectrometry; rabbit anti-rat-HIP1 antibody (20 μg per sample) on Dynabeads M-270 Epoxy; total lysates of rat FLS (one DA and one R6 cell line, each in triplicate), starved 24 h, then PDGFβ 100 ng/mL 30 min; lysis in water with protease and phosphatase inhibitors by three freeze-thaw cycles; elution with 8 M urea, LysC and trypsin, nano-LC-MS/MS, label-free quantitation).
For B1, the binding was “binds”. With B2 the binding was “binds”. B3 was tested, and the binding was “binds”.
